# Data as given in the supplement of paper PMC6411743.
# Chains of the proteins cited; added tags and fusions are not shown. Lines headed by an entry give the natural chain unless they say otherwise; changes in a name come on top.
# UniProt Q9UKL0, whole entry: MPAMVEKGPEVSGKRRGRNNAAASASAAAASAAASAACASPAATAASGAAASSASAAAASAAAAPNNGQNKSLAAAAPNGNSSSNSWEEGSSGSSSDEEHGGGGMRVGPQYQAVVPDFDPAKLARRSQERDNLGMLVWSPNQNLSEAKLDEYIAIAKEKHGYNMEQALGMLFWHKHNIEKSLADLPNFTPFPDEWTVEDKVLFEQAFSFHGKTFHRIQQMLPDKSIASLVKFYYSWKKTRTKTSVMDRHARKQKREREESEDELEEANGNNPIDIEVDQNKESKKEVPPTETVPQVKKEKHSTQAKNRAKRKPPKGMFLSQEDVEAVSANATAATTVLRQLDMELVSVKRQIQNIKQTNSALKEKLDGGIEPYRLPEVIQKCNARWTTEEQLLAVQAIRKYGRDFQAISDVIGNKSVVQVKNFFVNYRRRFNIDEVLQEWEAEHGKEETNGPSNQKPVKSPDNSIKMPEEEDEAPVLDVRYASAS
# UniProt Q96EP5: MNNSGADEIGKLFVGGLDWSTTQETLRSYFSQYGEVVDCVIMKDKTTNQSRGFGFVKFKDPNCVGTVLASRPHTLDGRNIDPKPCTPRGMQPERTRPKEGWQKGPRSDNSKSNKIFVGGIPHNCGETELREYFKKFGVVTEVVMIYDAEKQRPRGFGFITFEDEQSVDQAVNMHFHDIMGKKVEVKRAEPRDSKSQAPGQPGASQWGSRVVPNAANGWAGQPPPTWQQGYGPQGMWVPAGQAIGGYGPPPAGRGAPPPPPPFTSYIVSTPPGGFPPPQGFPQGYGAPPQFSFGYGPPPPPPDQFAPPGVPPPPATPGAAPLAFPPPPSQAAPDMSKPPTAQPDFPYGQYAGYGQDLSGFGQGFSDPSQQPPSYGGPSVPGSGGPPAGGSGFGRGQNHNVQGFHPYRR
# UniProt O14893: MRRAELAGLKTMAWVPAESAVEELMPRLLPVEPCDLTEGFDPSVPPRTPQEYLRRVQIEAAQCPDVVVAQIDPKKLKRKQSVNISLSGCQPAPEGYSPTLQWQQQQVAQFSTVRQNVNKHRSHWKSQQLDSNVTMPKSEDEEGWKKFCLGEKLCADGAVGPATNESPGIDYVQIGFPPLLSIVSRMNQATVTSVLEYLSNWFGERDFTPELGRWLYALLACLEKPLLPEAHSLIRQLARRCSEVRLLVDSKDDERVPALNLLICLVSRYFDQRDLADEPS
# UniProt O94952: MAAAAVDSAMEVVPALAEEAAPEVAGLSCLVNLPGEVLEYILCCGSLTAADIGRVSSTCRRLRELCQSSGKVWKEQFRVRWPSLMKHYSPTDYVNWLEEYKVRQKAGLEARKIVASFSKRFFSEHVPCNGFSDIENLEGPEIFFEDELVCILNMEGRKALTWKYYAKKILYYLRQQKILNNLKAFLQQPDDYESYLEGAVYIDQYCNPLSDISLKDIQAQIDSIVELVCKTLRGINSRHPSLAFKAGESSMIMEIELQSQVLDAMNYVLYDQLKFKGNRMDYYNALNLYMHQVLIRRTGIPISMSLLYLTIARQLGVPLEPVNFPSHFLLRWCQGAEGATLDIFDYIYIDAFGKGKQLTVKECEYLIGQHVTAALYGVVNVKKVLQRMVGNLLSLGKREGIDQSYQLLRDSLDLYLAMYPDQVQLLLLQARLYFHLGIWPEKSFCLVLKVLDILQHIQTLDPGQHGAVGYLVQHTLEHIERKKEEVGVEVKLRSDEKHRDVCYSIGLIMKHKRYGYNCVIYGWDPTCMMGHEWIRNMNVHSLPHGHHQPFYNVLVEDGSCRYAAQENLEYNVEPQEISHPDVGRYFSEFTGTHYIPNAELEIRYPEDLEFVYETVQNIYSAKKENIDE
# UniProt Q9NP61: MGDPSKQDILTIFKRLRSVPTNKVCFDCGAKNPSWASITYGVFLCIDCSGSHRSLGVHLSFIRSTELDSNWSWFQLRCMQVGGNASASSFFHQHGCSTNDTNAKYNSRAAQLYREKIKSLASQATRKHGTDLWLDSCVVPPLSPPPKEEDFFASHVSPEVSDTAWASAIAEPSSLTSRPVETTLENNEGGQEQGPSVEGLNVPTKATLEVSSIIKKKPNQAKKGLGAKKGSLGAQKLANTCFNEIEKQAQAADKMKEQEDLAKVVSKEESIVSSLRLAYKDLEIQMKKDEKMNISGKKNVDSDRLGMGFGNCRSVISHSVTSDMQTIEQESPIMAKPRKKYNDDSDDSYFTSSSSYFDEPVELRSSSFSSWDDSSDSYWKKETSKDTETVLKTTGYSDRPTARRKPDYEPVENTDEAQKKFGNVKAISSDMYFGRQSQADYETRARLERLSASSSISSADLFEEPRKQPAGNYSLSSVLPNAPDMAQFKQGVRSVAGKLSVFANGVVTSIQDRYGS
# UniProt Q86VQ6, whole entry: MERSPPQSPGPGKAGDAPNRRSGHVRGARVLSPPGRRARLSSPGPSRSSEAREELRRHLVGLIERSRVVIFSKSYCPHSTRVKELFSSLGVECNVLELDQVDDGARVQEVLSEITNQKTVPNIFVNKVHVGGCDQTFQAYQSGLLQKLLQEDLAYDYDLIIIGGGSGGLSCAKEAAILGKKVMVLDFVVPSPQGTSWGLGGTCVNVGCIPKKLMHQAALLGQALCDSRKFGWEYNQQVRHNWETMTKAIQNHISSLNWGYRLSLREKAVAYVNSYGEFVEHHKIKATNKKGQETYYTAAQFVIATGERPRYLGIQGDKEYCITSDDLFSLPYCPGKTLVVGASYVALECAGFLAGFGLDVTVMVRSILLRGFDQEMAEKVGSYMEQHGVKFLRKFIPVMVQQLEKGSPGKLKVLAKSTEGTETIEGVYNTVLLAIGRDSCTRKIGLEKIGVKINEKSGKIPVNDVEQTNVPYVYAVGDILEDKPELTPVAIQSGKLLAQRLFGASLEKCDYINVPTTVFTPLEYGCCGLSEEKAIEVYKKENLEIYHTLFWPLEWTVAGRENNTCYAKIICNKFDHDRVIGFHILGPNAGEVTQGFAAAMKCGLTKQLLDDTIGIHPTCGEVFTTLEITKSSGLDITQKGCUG
# UniProt Q96SW2: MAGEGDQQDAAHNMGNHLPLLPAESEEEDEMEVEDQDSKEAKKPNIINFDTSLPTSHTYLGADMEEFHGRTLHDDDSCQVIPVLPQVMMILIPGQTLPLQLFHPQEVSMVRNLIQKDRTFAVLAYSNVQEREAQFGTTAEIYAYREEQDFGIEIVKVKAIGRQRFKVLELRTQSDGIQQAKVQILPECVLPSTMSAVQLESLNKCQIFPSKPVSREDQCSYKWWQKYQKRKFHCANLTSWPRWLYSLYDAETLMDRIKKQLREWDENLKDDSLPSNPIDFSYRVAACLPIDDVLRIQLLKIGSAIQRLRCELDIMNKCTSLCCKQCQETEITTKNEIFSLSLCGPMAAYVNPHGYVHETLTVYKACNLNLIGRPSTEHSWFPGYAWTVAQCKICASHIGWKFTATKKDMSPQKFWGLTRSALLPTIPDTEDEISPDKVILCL
# UniProt Q2VPK5: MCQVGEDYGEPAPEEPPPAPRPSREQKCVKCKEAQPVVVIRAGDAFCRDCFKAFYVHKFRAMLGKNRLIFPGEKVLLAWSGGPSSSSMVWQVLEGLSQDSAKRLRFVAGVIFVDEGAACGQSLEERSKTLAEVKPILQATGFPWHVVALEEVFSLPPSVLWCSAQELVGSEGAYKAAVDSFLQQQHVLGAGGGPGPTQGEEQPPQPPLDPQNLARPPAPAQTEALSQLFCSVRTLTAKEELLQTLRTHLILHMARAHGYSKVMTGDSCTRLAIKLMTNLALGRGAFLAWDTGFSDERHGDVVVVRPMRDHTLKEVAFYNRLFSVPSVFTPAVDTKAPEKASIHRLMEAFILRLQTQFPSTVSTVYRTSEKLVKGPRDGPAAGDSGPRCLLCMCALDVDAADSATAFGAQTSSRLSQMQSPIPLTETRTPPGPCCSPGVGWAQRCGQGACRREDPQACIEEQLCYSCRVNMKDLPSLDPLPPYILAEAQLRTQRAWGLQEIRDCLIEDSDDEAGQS
# UniProt Q86Z02: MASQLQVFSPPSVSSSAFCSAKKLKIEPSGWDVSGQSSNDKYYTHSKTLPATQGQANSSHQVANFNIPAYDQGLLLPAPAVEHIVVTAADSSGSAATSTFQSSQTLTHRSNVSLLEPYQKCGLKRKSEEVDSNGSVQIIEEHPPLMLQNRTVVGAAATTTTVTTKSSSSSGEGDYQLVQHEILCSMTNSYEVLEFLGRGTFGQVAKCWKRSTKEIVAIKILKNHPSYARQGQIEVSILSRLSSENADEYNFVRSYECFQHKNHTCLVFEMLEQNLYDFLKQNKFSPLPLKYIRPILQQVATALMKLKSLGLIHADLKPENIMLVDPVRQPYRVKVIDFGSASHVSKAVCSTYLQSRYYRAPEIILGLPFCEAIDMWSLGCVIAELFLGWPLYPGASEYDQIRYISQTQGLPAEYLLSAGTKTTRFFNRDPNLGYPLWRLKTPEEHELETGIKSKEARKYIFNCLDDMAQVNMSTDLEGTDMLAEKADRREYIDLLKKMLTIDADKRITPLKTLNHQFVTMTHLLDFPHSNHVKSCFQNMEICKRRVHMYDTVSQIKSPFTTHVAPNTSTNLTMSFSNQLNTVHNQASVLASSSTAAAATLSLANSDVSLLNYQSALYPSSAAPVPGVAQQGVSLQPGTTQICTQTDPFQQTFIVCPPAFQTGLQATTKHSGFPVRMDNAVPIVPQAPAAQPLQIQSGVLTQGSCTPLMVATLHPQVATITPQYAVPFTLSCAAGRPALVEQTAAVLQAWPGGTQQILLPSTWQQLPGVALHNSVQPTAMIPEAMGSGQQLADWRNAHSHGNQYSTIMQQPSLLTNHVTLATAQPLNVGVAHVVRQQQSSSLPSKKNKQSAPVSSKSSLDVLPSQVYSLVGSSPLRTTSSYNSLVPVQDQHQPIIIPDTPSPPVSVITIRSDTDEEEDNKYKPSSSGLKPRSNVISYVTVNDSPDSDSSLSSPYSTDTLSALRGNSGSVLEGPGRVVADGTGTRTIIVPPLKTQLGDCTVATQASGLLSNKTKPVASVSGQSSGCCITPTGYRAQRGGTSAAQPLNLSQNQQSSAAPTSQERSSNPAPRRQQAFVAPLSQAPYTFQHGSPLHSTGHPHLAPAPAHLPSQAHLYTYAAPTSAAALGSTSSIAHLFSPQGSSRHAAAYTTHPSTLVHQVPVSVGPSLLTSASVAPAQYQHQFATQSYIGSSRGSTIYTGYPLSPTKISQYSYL
# UniProt Q8IXM2, whole entry, looked up: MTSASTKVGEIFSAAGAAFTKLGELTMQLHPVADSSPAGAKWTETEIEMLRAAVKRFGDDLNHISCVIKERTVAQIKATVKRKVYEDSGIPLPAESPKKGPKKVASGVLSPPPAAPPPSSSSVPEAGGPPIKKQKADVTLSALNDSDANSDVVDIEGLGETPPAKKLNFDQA
# UniProt O75264: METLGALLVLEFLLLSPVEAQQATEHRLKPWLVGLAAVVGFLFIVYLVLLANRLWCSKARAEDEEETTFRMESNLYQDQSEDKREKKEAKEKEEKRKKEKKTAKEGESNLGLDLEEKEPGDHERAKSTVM
# UniProt Q9UPN9: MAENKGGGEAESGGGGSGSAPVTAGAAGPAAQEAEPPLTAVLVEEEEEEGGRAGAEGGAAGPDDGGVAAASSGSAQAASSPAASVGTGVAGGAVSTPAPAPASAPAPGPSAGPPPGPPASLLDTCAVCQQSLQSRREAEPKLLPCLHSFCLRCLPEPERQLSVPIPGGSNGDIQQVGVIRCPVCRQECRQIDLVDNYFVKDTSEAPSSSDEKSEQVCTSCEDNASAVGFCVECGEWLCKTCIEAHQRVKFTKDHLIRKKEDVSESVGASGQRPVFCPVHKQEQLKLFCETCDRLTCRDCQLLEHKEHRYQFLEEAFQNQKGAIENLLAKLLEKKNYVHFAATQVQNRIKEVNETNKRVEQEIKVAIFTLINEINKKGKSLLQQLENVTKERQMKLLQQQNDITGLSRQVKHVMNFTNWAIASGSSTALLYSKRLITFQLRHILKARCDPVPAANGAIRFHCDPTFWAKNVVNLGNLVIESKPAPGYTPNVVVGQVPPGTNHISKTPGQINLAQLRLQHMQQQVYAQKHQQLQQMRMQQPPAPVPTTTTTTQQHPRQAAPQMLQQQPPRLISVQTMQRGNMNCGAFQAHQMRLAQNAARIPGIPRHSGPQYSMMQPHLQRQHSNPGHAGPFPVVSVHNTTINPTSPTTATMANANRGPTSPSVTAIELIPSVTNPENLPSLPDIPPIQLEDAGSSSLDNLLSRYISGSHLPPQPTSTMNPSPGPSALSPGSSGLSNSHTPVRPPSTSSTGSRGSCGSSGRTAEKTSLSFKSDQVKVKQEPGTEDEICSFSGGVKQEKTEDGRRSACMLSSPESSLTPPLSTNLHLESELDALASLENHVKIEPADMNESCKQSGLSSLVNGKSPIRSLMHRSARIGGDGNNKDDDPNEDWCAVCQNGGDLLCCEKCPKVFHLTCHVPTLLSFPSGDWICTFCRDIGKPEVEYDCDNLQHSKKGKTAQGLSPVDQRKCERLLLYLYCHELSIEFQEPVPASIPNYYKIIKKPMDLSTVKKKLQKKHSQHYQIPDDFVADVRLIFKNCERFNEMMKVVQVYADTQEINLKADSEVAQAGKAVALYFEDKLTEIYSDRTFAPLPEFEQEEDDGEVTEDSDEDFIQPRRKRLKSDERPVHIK
# ± gives the standard deviation of the averaged measurements. The list shows a part of the results, in another mix than the full data. Most entries show no effect beyond the scatter of the controls.
# Compound: Nc1ncnc2c1ncn2[C@@H]1O[C@H](COP(=O)(O)OP(=O)(O)OP(=O)(O)O)[C@@H](O)[C@H]1O [adenosine triphosphate]
# Assay: NP40-soluble protein abundance relative to vehicle (solubility fold change) (ratio); higher = more soluble protein in presence of ATP
# How it was run: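 Data come from three independent experiments in which Dounce-homogenised Jurkat crude lysate was treated at eight concentrations from 0.1 to 10 mM. Treatment ran 10 min at room temperature and then 3 min at 37 °C, after which 0.8% NP40 and benzonase were added for 60 min at 4 °C before ultracentrifugation. The supernatant underwent TMT labelling and LC-MS/MS, and vsn-normalised intensities were expressed as fold change against the detergent-processed vehicle in each replicate.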
Target,NP40-soluble protein abundance (concentration: 0.1mM),NP40-soluble protein abundance (concentration: 0.5mM)
I3L4X7 and related entries (UniProt Q13227),0.97 ± 0.058,0.968 ± 0.018
J3KN32 and related entries (UniProt Q9UKL0),0.972 ± 0.065,0.993 ± 0.047
K7EQ55 and related entries (UniProt Q96EP5),0.995 ± 0.028,1.01 ± 0.029
H7BYP4 and related entries (UniProt Q9H930),0.965 ± 0.12,0.931 ± 0.15
H0YEL0 and related entries (UniProt O14893),0.942 ± 0.1,0.949 ± 0.054
H3BP20 and related entries (UniProt P06865),0.999 ± 0.061,0.991 ± 0.013
H7C3T2 and related entries (UniProt Q2TAZ0),0.9966 ± 0.0055,0.946 ± 0.019
J3KS22 and related entries (UniProt Q7Z4W1),0.991 ± 0.053,0.977 ± 0.02
H0YIE9 and related entries (UniProt O94952),1.03 ± 0.041,1.06 ± 0.098
H3BNM4 and related entries (UniProt Q8NBZ0),0.979 ± 0.17,1.04 ± 0.18
H0Y6A0 and related entries (UniProt Q9NP61),0.988 ± 0.033,0.986 ± 0.031
H0Y9S9 and related entries (UniProt O43314),1.04 ± 0.056,1.02 ± 0.059
H0YBI6 and related entries (UniProt Q86VQ6),0.996 ± 0.092,1.07 ± 0.11
I3L0U5 and related entries (UniProt Q6PK04),0.967 ± 0.032,0.979 ± 0.097
J3QLS3 and related entries (UniProt Q9Y2R9),0.923 ± 0.098,0.917 ± 0.1
H7BYJ3 and related entries (UniProt O14578),1.015 ± 0.0059,1.05 ± 0.042
H0YD93 and related entries (UniProt Q8WXA3),0.959 ± 0.087,0.978 ± 0.12
K7EMK7 and related entries (UniProt Q04725),1.04 ± 0.12,0.967 ± 0.076
UniProt H7C1Q1,0.947 ± 0.033,1.07 ± 0.083
H7C1W4 and related entries (UniProt Q93075+H7C1W4),0.954 ± 0.14,0.978 ± 0.033
M0QX46 and related entries (UniProt Q6UUV9),0.994 ± 0.033,1.006 ± 0.0053
J3KNV1 and related entries (UniProt O60281),1.03 ± 0.048,1.02 ± 0.019
H7BXY6 and related entries (UniProt Q8NG11),0.938 ± 0.045,0.96 ± 0.065
J3QT87 and related entries (UniProt Q96SW2),0.954 ± 0.092,0.92 ± 0.074

# Record cards, from the list above:
# J3KN32 and related entries (UniProt Q9UKL0) in the list: NP40-soluble protein abundance (concentration: 0.1mM): 0.972 ± 0.065; NP40-soluble protein abundance (concentration: 0.5mM): 0.993 ± 0.047
# H7C1W4 and related entries (UniProt Q93075+H7C1W4) in the list: NP40-soluble protein abundance (concentration: 0.1mM): 0.954 ± 0.14; NP40-soluble protein abundance (concentration: 0.5mM): 0.978 ± 0.033

# Carrying on.

Target,NP40-soluble protein abundance (concentration: 0.1mM),NP40-soluble protein abundance (concentration: 0.5mM)
K7EJB5 and related entries (UniProt P62316),0.961 ± 0.088,1.03 ± 0.13
K7ESN3 and related entries (UniProt Q8N2G8),0.997 ± 0.17,1.04 ± 0.095
H3BM14 and related entries (UniProt Q9Y5A7),1 ± 0.06,0.996 ± 0.053
J3KPP0 and related entries (UniProt Q9Y6G3),0.955 ± 0.12,0.997 ± 0.19
H3BSW6 and related entries (UniProt Q2VPK5),1.07 ± 0.044,1.02 ± 0.05
I3L1P8 and related entries (UniProt Q02978),0.89 ± 0.042,0.893 ± 0.06
K7EJD2 and related entries (UniProt Q9Y5B0),0.999 ± 0.025,1 ± 0.07
H0YA52 and related entries (UniProt Q9H0N5),0.968 ± 0.06,0.962 ± 0.12
I3L121 and related entries (UniProt Q96AJ1),1.04 ± 0.074,1.05 ± 0.031
J3KP92 and related entries (UniProt Q86Z02),1.08 ± 0.11,0.987 ± 0.027
H9KV77 and related entries (UniProt Q9NQ92),1.02 ± 0.1,0.977 ± 0.14
H0YIS7 and related entries (UniProt Q8IXM2+H0YIS7),0.883 ± 0.2,0.868 ± 0.23
H9KVB4 and related entries (UniProt O15417),1.07 ± 0.11,1.05 ± 0.036
K4DI93 and related entries (UniProt Q13620),0.998 ± 0.08,1.02 ± 0.042
M0QY77 and related entries (UniProt Q9BQD3),0.881 ± 0.13,0.807 ± 0.18
H0YE91 and related entries (UniProt Q15782),0.895 ± 0.067,1.06 ± 0.063
J3KPC8 and related entries (UniProt Q9Y2K2),1.01 ± 0.096,1.03 ± 0.08
I3L4C2 and related entries (UniProt Q9UQB8),0.977 ± 0.023,0.931 ± 0.059
K7EK07 and related entries (UniProt P84243+K7EK07),0.855 ± 0.16,0.865 ± 0.061
K7EKM7 (UniProt O75264),0.944 ± 0.053,0.953 ± 0.17
H0Y612 and related entries (UniProt Q9UPN9),0.975 ± 0.018,1.01 ± 0.036
I3L4B6 and related entries (UniProt Q67FW5),1.04 ± 0.082,1.072 ± 0.0035
K7EMX1 and related entries (UniProt Q8NBT2),0.94 ± 0.099,0.935 ± 0.079
